Values of other authors, collected in patent US20110092602A1, “RAPIDLY DISINTEGRATING ORAL COMPOSITIONS OF TRAMADOL” (priority 2008, published 2011).

Tested on: reuptake of norepinephrine

SMILES: COc1cccc(C2(O)CCCCC2CN(C)C)c1 (stereo not shown) [Tramadol, 2-dimethylaminomethyl-1-(3-methoxyphenyl)cyclohexanol]
- inhibition of reuptake of norepinephrine: weak inhibition
